Measurements taken from US20090048287A1, “Compositions useful for treating gastrointestinal motility disorders” (priority 2003, published 2009).
For at least one compound, name, drawing or mass did not settle the structure.

How the values were obtained:
feline model of GERD [1] = experiment: Lower esophageal pH monitoring during gastroesophageal reflux in sedated cats; type: in vivo, cat; conditions: chronic pretreatment with omeprazole 20 mg/kg i.p. once a day for 4 days
Description: (§1) Experiments to determine the effects of MKC-733, omeprazole or the combination of MKC-733 and omeprazole on LESP, lower esophageal pH, esophageal motility and TLESR, in a feline model of GERD were conducted.
An Orion II pH probe (Medical Measurements Systems), running along with the manometric catheter, was positioned with one pH measuring site in the stomach and a second pH measuring site in the distal esophagus. pH was monitored and recorded simultaneously with the manometric recordings using a computerized data acquisition system (Medical Measurements Systems).
The pH in the lower esophagus was monitored at the same time as the manometric pressure. The pH was recorded for each measurement regimen set forth in Experiments 1 and 2.
All animals were acclimated to the facility for one week prior to testing. […]
(§2) Following instrumentation, baseline values of LESP, esophageal pH, esophageal peristalsis and TLESR were measured as described above. […]
Data is presented as mean±SEM. […] Significance of LESP treatment effects within and between experiments was evaluated using 2-Way repeated measures ANOVA. […] Significance of treatment effects for pH was evaluated using a nonparametric one-way repeated measures ANOVA (Friedman Test). […]
In 2 of the 5 animals, the 10 mg/kg dose was not administered. In 1 of the 3 remaining animals, pH was also not recorded following the […] dose.

feline model of GERD [2] = experiment: Lower esophageal sphincter pressure (LESP), manometric recording in sedated cats; type: in vivo, cat; conditions: omeprazole 20 mg/kg i.p. once a day for 4 days, with and without MKC-733 i.v., FIG. 1
Description: as §1
The cats used in the experiments were fasted overnight and sedated with ketamine (15-20 mg/kg intramuscular injection). A butterfly catheter filled with heparinized sterile saline was placed into the brachial vein and used for supplemental ketamine anesthesia and drug administration.
Each animal was fitted with a water-perfused sleeve catheter (Andorfer Inc, Greendale, Wis.) attached via pressure transducers to a minimally compliant hydrolytic pump. […] This 4 cm region was referred to as site 1 and the pressure was simultaneously recorded along this region. […] Throughout the experiment, the output from the pressure transducers was manometrically recorded using the PowerLab Chart 5 data acquisition program (ADInstruments, Colorado Springs, Colo.) on a computer using a Windows XP operating system.
The manometric pressure recording at site 1 of the catheter provided the baseline (at rest) LESP for each animal. The baseline LESP was recorded for each measurement regimen set forth in Experiments 1 and 2 below, and then compared. […]
as §2

COc1ccc2[nH]c([S+]([O-])Cc3ncc(C)c(OC)c3C)nc2c1 (centres unmarked) [omeprazole, reference compound]
pH gradient between the lower esophagus and the stomach (feline model of GERD [1]): collapsed the pH gradient
LESP normalized for each animal to its naive vehicle control (feline model of GERD [2]): enhancement of LESP
